Test results: publication PMC3180291

Chains of the proteins cited; added tags and fusions are not shown.
UniProt P08515, whole entry: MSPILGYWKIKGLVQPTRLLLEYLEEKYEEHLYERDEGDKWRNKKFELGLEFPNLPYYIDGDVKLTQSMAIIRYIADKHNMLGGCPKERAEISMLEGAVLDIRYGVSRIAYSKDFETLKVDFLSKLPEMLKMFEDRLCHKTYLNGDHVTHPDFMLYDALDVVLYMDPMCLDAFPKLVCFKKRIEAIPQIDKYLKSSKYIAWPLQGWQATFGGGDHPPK

Assays:
GST-OsDERF1 = test: EMSA; details: 5 mM Mg2+, poly(dI-dC), shift fully competed by excess unlabeled probe; 10 mM Tris pH 7.5, 50 mM KCl, 1 mM DTT, 2.5% glycerol, 0.05% NP-40, 5 mM MgCl2, 0.5 mM EDTA, 5 ng/mL poly(dI-dC), 30 ng protein, 1 ng DNA, 15 min room temperature; recombinant protein; protein details: N-terminal GST (pGEX-4T-1); label: 3'-DIG
GST = GST (UniProt P08515); test: EMSA; details: tag control; 10 mM Tris pH 7.5, 50 mM KCl, 1 mM DTT, 2.5% glycerol, 0.05% NP-40, 5 mM MgCl2, 0.5 mM EDTA, 5 ng/mL poly(dI-dC), 30 ng protein, 1 ng DNA, 15 min room temperature; recombinant protein; label: 3'-DIG

Sequence | binding result (GST-OsDERF1) | binding result (GST)
CGCGCGACACCACCATTCGCTTCGCCGCCTACCTGACGCGAAAAT (double strand) [OsAP2-39-p5 GCC box probe] | binds | 
GAAAAGCGCTCGCCTAATTTTAATGCCGCCTCGCTAAAGACGAGGGGCGGCGGCAAGGAG (double strand) [OsERF3-p4 GCC box probe] | binds | no binding

The exact form of at least one protein or probe is not confirmed. For part of these data: A negative result means that nothing was seen under these conditions.
